Results reported in paper PMC6678849.
These are yes or no findings as the source states them, for the method shown. Some binding calls cover weakened binding; strength is not graded here.

Sequences of proteins named here, by UniProt entry; tags and fusion partners are left off. A change or cut given only in a name is not applied to a line headed by its entry.
UniProt P61168: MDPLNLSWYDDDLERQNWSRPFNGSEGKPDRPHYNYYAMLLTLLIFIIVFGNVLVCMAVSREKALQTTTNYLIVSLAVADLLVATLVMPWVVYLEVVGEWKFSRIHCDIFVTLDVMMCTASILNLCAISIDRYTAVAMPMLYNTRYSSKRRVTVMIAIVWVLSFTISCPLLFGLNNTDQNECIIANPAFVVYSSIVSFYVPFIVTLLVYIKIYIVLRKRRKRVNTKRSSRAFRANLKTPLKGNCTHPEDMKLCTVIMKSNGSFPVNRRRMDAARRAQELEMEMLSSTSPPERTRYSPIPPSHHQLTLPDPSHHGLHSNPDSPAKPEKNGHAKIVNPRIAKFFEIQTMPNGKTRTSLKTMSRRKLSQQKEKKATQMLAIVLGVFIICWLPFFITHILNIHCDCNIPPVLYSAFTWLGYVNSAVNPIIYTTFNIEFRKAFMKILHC
UniProt P61169: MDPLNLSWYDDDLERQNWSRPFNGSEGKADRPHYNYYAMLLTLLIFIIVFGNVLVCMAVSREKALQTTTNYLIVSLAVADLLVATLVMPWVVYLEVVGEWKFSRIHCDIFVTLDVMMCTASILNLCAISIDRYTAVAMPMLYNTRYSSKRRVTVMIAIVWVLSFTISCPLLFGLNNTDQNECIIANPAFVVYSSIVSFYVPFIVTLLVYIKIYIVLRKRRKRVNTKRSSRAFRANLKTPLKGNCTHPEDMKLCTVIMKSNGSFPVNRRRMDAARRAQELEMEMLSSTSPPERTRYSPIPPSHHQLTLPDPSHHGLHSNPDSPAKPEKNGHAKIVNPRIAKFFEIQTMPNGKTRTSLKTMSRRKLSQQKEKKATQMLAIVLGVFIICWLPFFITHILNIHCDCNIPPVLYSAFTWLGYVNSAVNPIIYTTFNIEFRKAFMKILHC
UniProt Q60613: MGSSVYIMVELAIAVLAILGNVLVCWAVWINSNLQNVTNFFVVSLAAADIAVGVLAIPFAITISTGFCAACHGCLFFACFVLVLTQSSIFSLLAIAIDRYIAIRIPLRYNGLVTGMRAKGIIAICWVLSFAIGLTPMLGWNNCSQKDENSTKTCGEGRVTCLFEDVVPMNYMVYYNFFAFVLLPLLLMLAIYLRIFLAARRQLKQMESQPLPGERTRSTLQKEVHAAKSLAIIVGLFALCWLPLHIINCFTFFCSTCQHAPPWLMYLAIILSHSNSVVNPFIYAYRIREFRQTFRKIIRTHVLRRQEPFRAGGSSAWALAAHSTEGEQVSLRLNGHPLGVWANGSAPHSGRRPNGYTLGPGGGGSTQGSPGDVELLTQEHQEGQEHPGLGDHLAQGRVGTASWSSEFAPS
UniProt P30543: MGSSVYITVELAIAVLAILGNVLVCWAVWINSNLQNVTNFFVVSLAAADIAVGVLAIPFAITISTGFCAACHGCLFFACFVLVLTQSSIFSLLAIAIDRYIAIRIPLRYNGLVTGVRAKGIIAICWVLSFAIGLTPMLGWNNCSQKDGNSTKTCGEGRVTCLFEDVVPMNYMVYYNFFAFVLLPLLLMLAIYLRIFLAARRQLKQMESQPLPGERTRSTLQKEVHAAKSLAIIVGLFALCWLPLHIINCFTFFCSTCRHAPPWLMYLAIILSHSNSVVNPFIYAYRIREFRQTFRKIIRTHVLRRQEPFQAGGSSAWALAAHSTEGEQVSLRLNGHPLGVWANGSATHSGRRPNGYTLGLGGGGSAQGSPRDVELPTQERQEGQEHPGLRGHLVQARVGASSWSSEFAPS

Legend:
[1] = target: Dopamine D2 receptor (mouse striatum) (mouse (endogenous in CD-1 mouse striatum)) (UniProt P61168); experiment: AlphaScreen or HTRF; human caudate, mouse or rat striatal membranes (10 ug protein/well) in Alpha immunoassay buffer; 3 nM rabbit anti-D2R plus 10 nM goat anti-A2AR overnight at 4 °C, then anti-rabbit IgG donor beads and anti-goat IgG acceptor beads (20 ug/mL), 1 h at room temperature; controls: A2AR-/- mice, or no anti-A2AR antibody; samples compared: healthy control and PD caudate, 6-OHDA-lesioned and saline-treated rat striatal hemispheres
[2] = target: Dopamine D2 receptor (rat striatum) (rat (endogenous in Sprague-Dawley rat striatum)) (UniProt P61169); experiment: as above

Row | binding [1] | binding [2] | Substance
1 | binds | – | Adenosine A2A receptor (mouse striatum) (from UniProt Q60613 1-410)
2 | – | binds | Adenosine A2A receptor (rat striatum) (from UniProt P30543 1-410)
